Laboratory results as given in patent US20110039770A1, “INHIBITORS OF PROTEIN KINASE C ISOFORMS AND USES THEREOF” (PHARMAGAP INC., priority 2005, published 2011).
Results are given in words; binding and its absence hold for the method and conditions named. Some entries that bind do so weakly or less than the wild type.

Target: PKC-βI in extracts of human cell lines (human), P05771
Assay: Western-blot competition, cell extracts: PRE at 10X/20X the anti-PKC beta I primary antibody concentration competes with that antibody; band densitometry (lower band = PRE bound)
Details: remark: other sources report otherwise

binding: binds
B1: PRE 8 (peptide)
peptide: ILEDKGGDAQNLIGISI
